According to paper PMC7819943, “Rice protein-binding microarrays: a tool to detect cis-acting elements near promoter regions in rice”:
The list shows a part of the results.

The sequences below were run against T1, OsSMF1 (Oryza sativa, UniProt Q6ZLB0 1-436) (assay: protein-binding microarray (RPBM); PBS, 2% BSA, 51.3 ng/ul salmon testes DNA, 50 uM zinc acetate, 200 nM TF, 25 C, 1 h; high values mean tight binding). Settings: protein: recombinant; tags: N-terminal polyhistidine and DsRed monomer fusion (pET32a); chain copies: 2; label: CyDye5-dUTP incorporated in the synthesized complementary strand; 3' TTTTT single-stranded linker to array surface; dsDNA, one strand shown.
T1 sequence: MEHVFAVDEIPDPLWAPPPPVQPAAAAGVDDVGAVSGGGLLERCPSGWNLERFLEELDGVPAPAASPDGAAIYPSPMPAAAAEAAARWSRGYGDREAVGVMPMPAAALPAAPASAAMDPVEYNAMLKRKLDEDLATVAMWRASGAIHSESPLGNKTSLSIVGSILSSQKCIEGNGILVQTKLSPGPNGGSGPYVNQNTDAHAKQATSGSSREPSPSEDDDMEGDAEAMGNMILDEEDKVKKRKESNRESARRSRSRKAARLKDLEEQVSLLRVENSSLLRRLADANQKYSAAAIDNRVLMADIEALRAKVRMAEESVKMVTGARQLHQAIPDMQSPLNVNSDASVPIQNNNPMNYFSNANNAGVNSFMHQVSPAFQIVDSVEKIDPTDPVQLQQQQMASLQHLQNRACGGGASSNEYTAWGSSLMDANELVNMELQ
Outline: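 An Axon 4000B scanner gave the binding signal as per-feature fluorescence intensity in arbitrary units. This followed washing of a custom Agilent array that had been incubated for 1 h at 25 °C with 200 nM protein in PBS, 2% BSA, salmon testes DNA and 50 µM zinc acetate. The proteins were transcription factors fused at the N-terminus to polyhistidine and DsRed, expressed in E. coli BL21-CodonPlus and purified on Ni–NTA.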
In the case of “AACCCACCTATCTTGTTTTCCACGTGTACGCTTTTCAAACCGGAGTCACCTAGTGCAG”, the binding signal was 9970 fluorescence intensity (a.u.).
“CGCGAGGTGACGCTGACGCGTCCATCGCGCACGACATCGCCGGAGTCACCTAGTGCAG” was tested, and the binding signal was 9000 fluorescence intensity (a.u.).
For “GCAGCACTCACAGCTCGACACGTGTCCCGCATCACGTGTCCGGAGTCACCTAGTGCAG”, the binding signal was 8430 fluorescence intensity (a.u.).
For “AGAAGAGGGAGACAGAGGATAGAGAGAAGAGGGCACTTCACGGAGTCACCTAGTGCAG”, the binding signal was 11900 fluorescence intensity (a.u.).
In the case of “ACACCTATATCTCCTAGCTAGGACTCATAGGTGGCAGCTCCGGAGTCACCTAGTGCAG”, the binding signal was 3850 fluorescence intensity (a.u.).
“CATCTTACTCTAGCTTCTCCATTCCAAAATTCACCACCGCCGGAGTCACCTAGTGCAG” was tested, and the binding signal was 23000 fluorescence intensity (a.u.).
With “TAGTTTTAAGAAATATATAATTTATGGCGTGCAACTCCTACGGAGTCACCTAGTGCAG” the binding signal was 3660 fluorescence intensity (a.u.).
In the case of “TCAATGAGCCATGTAGGACAAACTCAATCATGCGATTAGTCGGAGTCACCTAGTGCAG”, the binding signal was 3250 fluorescence intensity (a.u.).
For “GAGGTAAGAGCATGTGAACCTATACCTGCGGAGCAACCGCCGGAGTCACCTAGTGCAG”, the binding signal was 3870 fluorescence intensity (a.u.).
In the case of “GATGTCATGCATGCATGTATATATTTCAATCGACTTTGGTCGGAGTCACCTAGTGCAG”, the binding signal was 6410 fluorescence intensity (a.u.).
For “TGGTGACGGTGACTCCAACCCTGACATATACACGCAATACCGGAGTCACCTAGTGCAG”, the binding signal was 5120 fluorescence intensity (a.u.).
For “TTAACAGTTGGTTACTAGTCCTAATTAATTCAGTAGCAATCGGAGTCACCTAGTGCAG”, the binding signal was 4700 fluorescence intensity (a.u.).
In the case of “GCAGCCATTTACGCTTTCCACGTCAGTGCATGATGGAGTACGGAGTCACCTAGTGCAG”, the binding signal was 16800 fluorescence intensity (a.u.).
“AGAGGGAAGCCACGGTTCACGCTGGCCAAGCACCCCACGCCGGAGTCACCTAGTGCAG” was tested, and the binding signal was 3560 fluorescence intensity (a.u.).
For “AATAGATTTTCTAACCAATGATCATAAGACAGTATGTGGTCGGAGTCACCTAGTGCAG”, the binding signal was 3760 fluorescence intensity (a.u.).
In the case of “CGACGCGGCCAGCGGCGGCGGCCCCAGAGATGACGCGCGTCGGAGTCACCTAGTGCAG”, the binding signal was 3390 fluorescence intensity (a.u.).
For “TTCCCAGTCCTCTTCCCTTGACACGAGCTTTCCAAATTTCCGGAGTCACCTAGTGCAG”, the binding signal was 3960 fluorescence intensity (a.u.).
“CCGCCGCGGCCACTGACGAGGACCGCGAGCTCCTCCGTCCCGGAGTCACCTAGTGCAG” was tested, and the binding signal was 3230 fluorescence intensity (a.u.).
With “GACGCGTGCCCCTTCTCCATCCCCTATCTGACCATCAGCGCGGAGTCACCTAGTGCAG” the binding signal was 3170 fluorescence intensity (a.u.).
With “GAACTAGTCCAGTGTGTCCAGTCTGGCTCCCTTCGTCTCCCGGAGTCACCTAGTGCAG” the binding signal was 3480 fluorescence intensity (a.u.).
“GCAGTATTTACATCAATATTACGTGGATTTAGCCTAAAAGCGGAGTCACCTAGTGCAG” was tested, and the binding signal was 6780 fluorescence intensity (a.u.).
With “TTTTGACTTTCGCATGATCACATCAAATCCAGCGGAGCCGCGGAGTCACCTAGTGCAG” the binding signal was 3510 fluorescence intensity (a.u.).
In the case of “CAATGGCGGCTGGGATCTGATCTTATGTGATGCCATATTTCGGAGTCACCTAGTGCAG”, the binding signal was 3490 fluorescence intensity (a.u.).
In the case of “TGTGTCGTACGTCACGGCCCACGTCATCATCATACCGTTTCGGAGTCACCTAGTGCAG”, the binding signal was 37000 fluorescence intensity (a.u.).
With “AAATTGATATTGCATGCCTTTTATATGAGGTGCCACGTCACGGAGTCACCTAGTGCAG” the binding signal was 27000 fluorescence intensity (a.u.).
With “CACGCCGCCAGGCCGGGCCCATCTGGCTTAACCACGCCCGCGGAGTCACCTAGTGCAG” the binding signal was 3620 fluorescence intensity (a.u.).
“GGGTGATGATGTGGCATATTTGCATGTGATTTACTCTATACGGAGTCACCTAGTGCAG” was tested, and the binding signal was 13400 fluorescence intensity (a.u.).
“TGGATGACCTGGTACATGGGCGTGATCCCGCTCCCGCCGGCGGAGTCACCTAGTGCAG” was tested, and the binding signal was 3340 fluorescence intensity (a.u.).
With “CAAGATGCATGAGGCCGCACGACCTTAAAGTTCAACGTGGCGGAGTCACCTAGTGCAG” the binding signal was 3140 fluorescence intensity (a.u.).
In the case of “TTATAACACAAAACACATATGAAGCGCACTCTACCACGCACGGAGTCACCTAGTGCAG”, the binding signal was 32200 fluorescence intensity (a.u.).
With “TGTGATCACTTTTGCTTACATGGATGGTGAGAGTGCTCCCCGGAGTCACCTAGTGCAG” the binding signal was 3630 fluorescence intensity (a.u.).
“TGAACTCCTAATACTGTCCTACCACTTCTACATGTCTTCTCGGAGTCACCTAGTGCAG” was tested, and the binding signal was 28700 fluorescence intensity (a.u.).
In the case of “ATTTTGCGTGCGTGTAGGATTTGTTCCCAAACACCACATGCGGAGTCACCTAGTGCAG”, the binding signal was 5820 fluorescence intensity (a.u.).
For “CCGCCGCTCGCTCCCCACGGATGGCCGTAGGGGAGAAGGACGGAGTCACCTAGTGCAG”, the binding signal was 36200 fluorescence intensity (a.u.).
For “GTAATGGCCCTGTCTGACTCATTCACCAAACCCCTGAATTCGGAGTCACCTAGTGCAG”, the binding signal was 3190 fluorescence intensity (a.u.).
With “TTCCCCAAGTTCACAACCTGTACGTGTGTGTGGTACGTAGCGGAGTCACCTAGTGCAG” the binding signal was 4180 fluorescence intensity (a.u.).
“TATATATTATACCATTAATGACTGATCCTACCCTCTCATACGGAGTCACCTAGTGCAG” was tested, and the binding signal was 3290 fluorescence intensity (a.u.).
For “AACCCTTCTTCCATATGATGTGGCTAATTTTGAAGATGTACGGAGTCACCTAGTGCAG”, the binding signal was 8830 fluorescence intensity (a.u.).
In the case of “CTTATGTCGAGCAGGATATTGGACGTCTTGATGTCACGGTCGGAGTCACCTAGTGCAG”, the binding signal was 3570 fluorescence intensity (a.u.).
In the case of “GAAGTTTGCCTTGTCGGCCGTCGTGTCCTTCTGCCGCTAACGGAGTCACCTAGTGCAG”, the binding signal was 3980 fluorescence intensity (a.u.).
In the case of “TTGTCGCAGGTTGCTGACTGTTCCTCGAGGGAGTTCTCGGCGGAGTCACCTAGTGCAG”, the binding signal was 6980 fluorescence intensity (a.u.).
In the case of “TCCTCTGTCTCCTCCCTCATCCATCGAGCACCGAGCTCTGCGGAGTCACCTAGTGCAG”, the binding signal was 3640 fluorescence intensity (a.u.).
With “GCTTCAAGATTGGTGAGAATACAGGTGGCACGATGGTTCCCGGAGTCACCTAGTGCAG” the binding signal was 3870 fluorescence intensity (a.u.).
For “GTCGGGCGCCACCACCGCATCCTCCGCCATCCCCGCGCCGCGGAGTCACCTAGTGCAG”, the binding signal was 3900 fluorescence intensity (a.u.).
With “GTAGGTTGTGCATTGATAAGGGTGAGTGTGCACGTGAACGCGGAGTCACCTAGTGCAG” the binding signal was 4670 fluorescence intensity (a.u.).
“TCTGCTCTTCTGCTTCTTCTCTTCAGCCTCAAGATTTGTTCGGAGTCACCTAGTGCAG” was tested, and the binding signal was 23600 fluorescence intensity (a.u.).
For “TACCTCTTCAGTACAGCTGCAGCTGCTGACTGCTCACTACCGGAGTCACCTAGTGCAG”, the binding signal was 4340 fluorescence intensity (a.u.).
In the case of “ACGGCACCACCTCCATACGTCACCGGGAGGACCCAACTGCCGGAGTCACCTAGTGCAG”, the binding signal was 5150 fluorescence intensity (a.u.).
“ACAAAACGTGGCGATTAACCAAACACCCCTTGATCCATGGCGGAGTCACCTAGTGCAG” was tested, and the binding signal was 3640 fluorescence intensity (a.u.).
For “AGTCGCCTGACACCAGTCCATACGCATGTCACTGAAATTGCGGAGTCACCTAGTGCAG”, the binding signal was 4250 fluorescence intensity (a.u.).
For “TTACTTTAAAATGTGAGGATGTAATTGGCAGCAGCTCAAACGGAGTCACCTAGTGCAG”, the binding signal was 3710 fluorescence intensity (a.u.).
For “CCAAATCCGGCGCGCTGTGTCACCAAATCGCCATATCTCACGGAGTCACCTAGTGCAG”, the binding signal was 4430 fluorescence intensity (a.u.).
“GGTGCCCTCGACGAGGAGGCCGATGCCGTTGATGGTGACGCGGAGTCACCTAGTGCAG” was tested, and the binding signal was 5610 fluorescence intensity (a.u.).
With “CGGCCACGAACTCCGCCGCCGCCGCCTCCTCCCCGTCGCCCGGAGTCACCTAGTGCAG” the binding signal was 5120 fluorescence intensity (a.u.).
